Data as given in article PMC7606452.
Results are given in words; binding and its absence hold for the method and conditions named. Binding seen in cells or lysates may run through a third protein. Some entries that bind do so weakly or less than the wild type.

Protein sequences, listed by entry. Tags and fused reporters are not part of them. Lines headed by an entry give the natural chain unless they say otherwise; changes in a name come on top. Chains listed by the source or under a name are the forms on record and can include a tag or linker.
UniProt P0DMV8: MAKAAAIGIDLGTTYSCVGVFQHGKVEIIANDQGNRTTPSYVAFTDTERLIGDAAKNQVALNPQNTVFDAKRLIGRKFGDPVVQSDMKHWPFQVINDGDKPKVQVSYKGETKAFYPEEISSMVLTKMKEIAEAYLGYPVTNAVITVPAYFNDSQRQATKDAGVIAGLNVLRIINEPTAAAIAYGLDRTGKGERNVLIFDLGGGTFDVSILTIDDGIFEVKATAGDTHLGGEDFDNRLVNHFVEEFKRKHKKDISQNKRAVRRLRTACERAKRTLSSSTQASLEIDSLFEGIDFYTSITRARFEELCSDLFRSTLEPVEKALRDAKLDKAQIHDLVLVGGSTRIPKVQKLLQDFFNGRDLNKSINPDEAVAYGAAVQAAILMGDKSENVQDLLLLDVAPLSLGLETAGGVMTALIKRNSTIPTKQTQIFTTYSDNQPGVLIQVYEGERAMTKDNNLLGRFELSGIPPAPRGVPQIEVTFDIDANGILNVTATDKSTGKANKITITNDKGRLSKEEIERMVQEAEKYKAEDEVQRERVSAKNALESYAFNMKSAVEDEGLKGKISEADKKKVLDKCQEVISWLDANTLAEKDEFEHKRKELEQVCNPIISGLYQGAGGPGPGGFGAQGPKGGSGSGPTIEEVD
UniProt P11142: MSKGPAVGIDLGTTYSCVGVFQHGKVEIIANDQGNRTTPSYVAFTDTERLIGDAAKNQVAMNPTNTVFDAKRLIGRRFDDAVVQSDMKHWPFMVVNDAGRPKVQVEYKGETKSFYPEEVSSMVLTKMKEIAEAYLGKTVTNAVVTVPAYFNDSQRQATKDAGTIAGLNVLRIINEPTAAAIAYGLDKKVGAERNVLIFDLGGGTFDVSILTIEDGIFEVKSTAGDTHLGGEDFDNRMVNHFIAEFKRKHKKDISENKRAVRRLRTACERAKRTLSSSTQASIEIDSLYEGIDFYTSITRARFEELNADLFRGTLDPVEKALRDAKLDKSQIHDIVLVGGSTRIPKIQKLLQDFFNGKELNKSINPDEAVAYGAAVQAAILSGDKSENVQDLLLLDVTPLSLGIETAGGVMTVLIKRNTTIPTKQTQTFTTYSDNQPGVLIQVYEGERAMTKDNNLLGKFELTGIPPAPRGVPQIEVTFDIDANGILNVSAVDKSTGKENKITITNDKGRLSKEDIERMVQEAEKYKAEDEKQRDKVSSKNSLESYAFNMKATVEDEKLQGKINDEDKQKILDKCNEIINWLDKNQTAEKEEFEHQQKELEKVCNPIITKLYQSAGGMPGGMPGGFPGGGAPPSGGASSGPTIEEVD
UniProt Q9UBN7: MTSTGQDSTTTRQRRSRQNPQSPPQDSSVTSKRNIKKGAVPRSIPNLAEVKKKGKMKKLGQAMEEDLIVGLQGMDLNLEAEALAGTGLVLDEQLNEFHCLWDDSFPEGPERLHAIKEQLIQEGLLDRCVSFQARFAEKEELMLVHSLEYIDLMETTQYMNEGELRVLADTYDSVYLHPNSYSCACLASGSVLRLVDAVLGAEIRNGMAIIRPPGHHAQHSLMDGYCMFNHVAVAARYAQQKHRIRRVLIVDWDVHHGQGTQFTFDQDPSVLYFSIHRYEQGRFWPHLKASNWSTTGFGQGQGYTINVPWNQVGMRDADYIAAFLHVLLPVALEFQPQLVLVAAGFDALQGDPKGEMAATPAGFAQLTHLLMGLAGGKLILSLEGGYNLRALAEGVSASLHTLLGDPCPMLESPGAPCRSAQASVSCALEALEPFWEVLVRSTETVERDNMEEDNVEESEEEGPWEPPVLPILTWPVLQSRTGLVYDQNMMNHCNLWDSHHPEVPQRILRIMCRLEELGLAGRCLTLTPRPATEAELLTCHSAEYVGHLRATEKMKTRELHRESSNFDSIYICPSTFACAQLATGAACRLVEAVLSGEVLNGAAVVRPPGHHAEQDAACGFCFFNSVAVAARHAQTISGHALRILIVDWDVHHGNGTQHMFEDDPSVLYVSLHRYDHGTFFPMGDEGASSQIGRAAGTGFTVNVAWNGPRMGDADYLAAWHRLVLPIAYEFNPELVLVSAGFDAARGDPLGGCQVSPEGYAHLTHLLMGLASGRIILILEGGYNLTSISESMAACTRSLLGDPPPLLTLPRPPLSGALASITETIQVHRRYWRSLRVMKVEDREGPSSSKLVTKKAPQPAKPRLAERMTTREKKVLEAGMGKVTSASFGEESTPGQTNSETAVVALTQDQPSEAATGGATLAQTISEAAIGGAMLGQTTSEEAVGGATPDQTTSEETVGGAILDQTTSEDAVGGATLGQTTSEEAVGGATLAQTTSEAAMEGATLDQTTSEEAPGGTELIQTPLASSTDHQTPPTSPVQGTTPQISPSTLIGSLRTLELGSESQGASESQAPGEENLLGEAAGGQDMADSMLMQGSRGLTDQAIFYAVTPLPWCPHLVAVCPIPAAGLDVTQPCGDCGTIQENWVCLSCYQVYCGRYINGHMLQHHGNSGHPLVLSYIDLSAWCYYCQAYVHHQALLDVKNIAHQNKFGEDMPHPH
FLAG-tagged HDAC6 ΔSE14 (Q9UBN7, form named): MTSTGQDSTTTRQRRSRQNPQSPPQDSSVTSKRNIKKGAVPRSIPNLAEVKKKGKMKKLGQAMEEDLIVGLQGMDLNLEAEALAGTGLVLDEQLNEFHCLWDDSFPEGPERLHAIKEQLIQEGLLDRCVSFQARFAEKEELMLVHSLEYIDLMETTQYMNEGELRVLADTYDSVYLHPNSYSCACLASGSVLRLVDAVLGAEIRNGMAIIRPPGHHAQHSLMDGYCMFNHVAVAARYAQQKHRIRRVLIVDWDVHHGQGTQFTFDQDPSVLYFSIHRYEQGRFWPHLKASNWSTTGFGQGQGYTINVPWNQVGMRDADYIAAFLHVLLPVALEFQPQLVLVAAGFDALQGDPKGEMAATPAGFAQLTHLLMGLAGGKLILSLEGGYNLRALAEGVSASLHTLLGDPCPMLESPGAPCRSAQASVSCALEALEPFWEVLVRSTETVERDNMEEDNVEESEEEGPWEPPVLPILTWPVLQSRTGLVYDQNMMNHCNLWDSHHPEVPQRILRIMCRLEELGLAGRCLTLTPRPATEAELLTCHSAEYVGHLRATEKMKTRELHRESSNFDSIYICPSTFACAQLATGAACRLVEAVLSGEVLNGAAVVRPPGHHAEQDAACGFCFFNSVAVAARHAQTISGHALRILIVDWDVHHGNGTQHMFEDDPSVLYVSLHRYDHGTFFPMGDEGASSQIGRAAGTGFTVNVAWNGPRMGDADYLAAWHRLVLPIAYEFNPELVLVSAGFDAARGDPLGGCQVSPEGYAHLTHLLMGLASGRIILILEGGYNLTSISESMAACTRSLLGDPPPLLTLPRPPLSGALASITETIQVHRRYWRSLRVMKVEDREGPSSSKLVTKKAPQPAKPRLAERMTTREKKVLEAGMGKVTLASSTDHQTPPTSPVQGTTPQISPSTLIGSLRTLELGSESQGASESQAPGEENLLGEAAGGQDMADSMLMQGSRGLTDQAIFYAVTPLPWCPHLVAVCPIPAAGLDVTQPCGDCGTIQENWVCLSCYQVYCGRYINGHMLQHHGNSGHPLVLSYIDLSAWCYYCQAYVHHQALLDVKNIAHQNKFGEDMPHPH

Key:
Hsp70-FL = Hsp70-FL (UniProt P0DMV8); assay: co-IP; HEK-293A cells, HDAC6 (WT or ΔSE14) with Hsp70 or Hsc70 (Supplementary Fig. 1f); NETN lysate; which partner was precipitated is not told
Hsc70-Myc = Hsc70-Myc (UniProt P11142); assay: as above

| Substance | binding (Hsp70-FL) | binding (Hsc70-Myc) |
| --- | --- | --- |
| FLAG-tagged HDAC6 (WT) (from UniProt Q9UBN7 1-1215) (enzyme) | binds | binds |
| FLAG-tagged HDAC6 ΔSE14 (from UniProt Q9UBN7 1-1215) (enzyme) | binds | binds |
